Structures can show the parent of a compound that is named as a salt. The list shows a part of the results. The numbers are fractions of the control, whatever unit the source prints. Most values lie at the level of the controls, where differences are scatter.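 A lentiviral reporter stably expressed in MIN6 mouse insulinoma beta cells uses Pdx1 and Ins1 promoters to drive separate nucleus-targeted fluorescent proteins; automated imaging with Hoechst nuclear stain counted cells. Possible hits were drugs shifting Ins1 promoter signal more than two median absolute deviations from DMSO controls, with Pdx1 activity roughly normal.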
tested on: MIN6; assay: % Pdx1+ Ins1-low (RFP-only, immature) cells relative to DMSO control (fold of DMSO control); higher = more immature Pdx1+/Ins1-low cells; conditions: 8.5 µM; 48 h; glucose 5 mM

Compound | % Pdx1+ Ins1-low
CN(C)CCOC(=O)C(c1ccccc1)C1(O)CCCC1 (stereo not given) [Cyclopentolate hydrochloride] | 1.2
CC1=CC(=O)C2=C(C)CC[C@@H]3[C@H](OC(=O)[C@H]3C)[C@@H]12 [Leucomisine] | 1.15
Nc1ccc(/N=N/c2ccccc2)c(N)n1 [Phenazopyridine hydrochloride] | 0.947
CCC1(C)CC(=O)NC1=O (stereo not given) [Ethosuximide] | 1.26
CC(NCCc1ccc(O)cc1)C(O)c1ccc(O)cc1 (stereo not given) [Ritodrine hydrochloride] | 1.16
C[N+](C)(CCOc1ccccc1)Cc1ccccc1.O=C([O-])c1cc2ccccc2cc1O [Bephenium hydroxynaphthoate] | 0.635
CCCNC(C)(C)COC(=O)c1ccccc1 [Meprylcaine hydrochloride] | 0.64
CC(=O)Oc1ccc(C(c2ccc(OC(C)=O)cc2)c2ccccn2)cc1 [Bisacodyl] | 1.34
CCC(C)(C)C(=O)O[C@H]1C[C@@H](C)C=C2C=C[C@H](C)[C@H](CC[C@@H]3C[C@@H](O)CC(=O)O3)[C@H]21 [Simvastatin] | 0.624
N[C@@H](Cc1ccc(O)c(O)c1)C(=O)O [Levodopa] | 1.08
CN1CCN2c3ccccc3Cc3ccccc3C2C1 (stereo not given) [Mianserine hydrochloride] | 0.917
O=C(O)CCC(=O)c1ccc(-c2ccccc2)cc1 [Fenbufen] | 0.952
C[C@H](CCC(=O)O)[C@H]1CC[C@H]2[C@@H]3C(=O)C[C@@H]4CC(=O)CC[C@]4(C)[C@H]3CC(=O)[C@]12C [Dehydrocholic acid] | 0.634
CCOC(=O)C1=C(C)NC(C)=C(C(=O)OC)C1c1cccc(Cl)c1Cl (stereo not given) [Felodipine] | 0.789
Nc1ncn(C2OC(CO)C(O)C2O)c(=O)n1 (stereo not given) [Azacytidine-5] | 0.707
CC(C)(C)NC[C@H](O)COc1cccc2c1CCCC2=O [(-) -Levobunolol hydrochloride] | 0.676
C[N+](C)(C)CCOC(N)=O [Carbachol] | 1.24
OC(CCN1CCCCC1)(c1ccccc1)c1ccccc1 [Pridinol methanesulfonate salt] | 1.29

As entered above.
Under % Pdx1+ Ins1-low, O=C(O)CCC(=O)c1ccc(-c2ccccc2)cc1 [Fenbufen] has 0.952
Under % Pdx1+ Ins1-low, CC(C)(C)NC[C@H](O)COc1cccc2c1CCCC2=O [(-) -Levobunolol hydrochloride] has 0.676

Following part.

Compound | % Pdx1+ Ins1-low
CCN(CC)CCNC(=O)c1cc(Br)c(N)cc1OC [Bromopride] | 1.14
CC(C)NNC(=O)c1ccncc1 [Iproniazide phosphate] | 0.789
CCOc1ccc(Cc2nccc3cc(OCC)c(OCC)cc23)cc1OCC [Ethaverine hydrochloride] | 0.896
O=C(Nc1ccc([N+](=O)[O-])cc1Cl)c1cc(Cl)ccc1O [Niclosamide] | 1.04
C#C[C@]1(O)CC[C@H]2[C@@H]3CCC4=Cc5oncc5C[C@]4(C)[C@H]3CC[C@@]21C [Danazol] | 1.13
CC12CC3CC(C)(C1)CC(N)(C3)C2 [Memantine Hydrochloride] | 0.401
CN1CCCN=C1/C=C/c1cccs1 [Pyrantel tartrate] | 0.786
CCC[C@@H]1C[C@@H](C(=O)N[C@@H]([C@H]2O[C@H](SC)[C@H](O)[C@@H](O)[C@H]2O)[C@@H](C)O)N(C)C1 [Lincomycin hydrochloride] | 1.37
CC1(C)O[C@@H]2C[C@H]3[C@@H]4C[C@H](F)C5=CC(=O)CC[C@]5(C)[C@H]4[C@@H](O)C[C@]3(C)[C@]2(C(=O)CO)O1 [Flurandrenolide] | 0.736
NNC(=O)c1ccncc1 [Isoniazid] | 0.715
CCN1CCCC1CNC(=O)c1cc(S(N)(=O)=O)ccc1OC (stereo not given) [Sulpiride] | 0.785
Cc1cccc(N(C)C(=S)Oc2ccc3ccccc3c2)c1 [Tolnaftate] | 0.864
O=c1[nH]c(=O)n([C@H]2C[C@H](O)[C@@H](CO)O2)cc1I [Idoxuridine] | 0.875
CCCCc1oc2ccccc2c1C(=O)c1cc(I)c(OCCN(CC)CC)c(I)c1 [Amiodarone hydrochloride] | 1.34
O=C(O)c1cccnc1 [Niacin] | 0.594
CC1(C)O[C@@H]2C[C@H]3[C@@H]4C[C@H](F)C5=CC(=O)C=C[C@]5(C)[C@H]4[C@@H](O)C[C@]3(C)[C@]2(C(=O)CO)O1 [Flunisolide] | 1.01
C[C@H](CS)C(=O)N1CCC[C@H]1C(=O)O [Captopril] | 1.28

Reference: the supplement of paper PMC4807443
